pIC50, pKd: −log10 of the molar value. The match of structure and compound is tentative.
Tests used:
[1] = system: HT-1376 cells; assay: Inhibition of cell proliferation, X-Celligence RTCA, HT-1376; conditions: 5000 cells/well
Description: Cell proliferation was determined using X-Celligence RTCA system (Roche). For real-time recording of HT-1376, resp. Cal29 cell proliferation, 5000 cells/well were seeded in 16 well E-plates (Roche). Cells were seeded in the presence of DMSO or the tested compound of formula (I) as indicated in Table 124 h before seeding in E-plates. Cell indices were automatically recorded every 15 minutes. Relative velocities represent the change of the cell index over time.
For the results of the HT-1376, resp. Cal29 cell proliferation assay shown as “in vivo (HT-1376 Cells)” and “in vivo (Cal29 Cells)” in Table 1, “***” represents an anti-proliferation effect at less than or equal to 10 μM; “**” represents an anti-proliferation effect at greater than 10 µM and less than or equal to 30 μM; “*” represents an anti-proliferation effect at greater than 30 µM and less than or equal to 100 μM.

The chains behind the UniProt entries cited, without tags or fusion partners. Residues count along the entry.
UniProt Q9Y5N5, whole entry: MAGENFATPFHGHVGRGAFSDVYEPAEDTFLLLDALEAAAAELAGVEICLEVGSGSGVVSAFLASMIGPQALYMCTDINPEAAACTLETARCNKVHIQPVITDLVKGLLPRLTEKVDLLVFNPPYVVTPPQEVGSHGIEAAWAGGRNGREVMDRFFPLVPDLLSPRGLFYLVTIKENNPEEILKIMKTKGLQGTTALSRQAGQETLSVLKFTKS
UniProt Q9UI30, 1-120 isoform 2 partner: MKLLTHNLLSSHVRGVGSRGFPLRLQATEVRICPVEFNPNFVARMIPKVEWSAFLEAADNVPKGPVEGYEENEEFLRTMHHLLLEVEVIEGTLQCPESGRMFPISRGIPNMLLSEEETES

[2] = target: T1, KMT9 (Homo sapiens, UniProt Q9Y5N5); assay: KMT9 methyltransferase inhibition assay, MTaseGlo luminescence (from entry 155); conditions: read-out: Inhibition (IC50); MTaseGlo procedure (entries from 155); 100 nM KMT9, 5 μM ETF1, 1 μM SAM
Description: For the compounds from entry 155 on in Table 1, the following procedure was used to determine IC50 values: The assay was carried out in white, opaque 384-well OptiPlates (PerkinElmer). For IC50 determination, a 2.5x substrate mix (final assay concentrations: 5 μM ETF1, 1 μM SAM and 1x MTaseGlo Reagent), a 2.5x KMT9 solution (final assay concentration 100 nM) and a 5x inhibitor stock 1:1 dilution series (concentration according to the desired range; dilution series was prepared in assay buffer containing 10% DMSO to obtain a final DMSO concentration of 2% in the assay) were prepared. 2 μL of 5x inhibitor stock and 4 μL of 2.5x KMT9 were pipetted, the plate was spun down at 700 rpm for 1 min using a Hettich UNIVERSAL 320 centrifuge and incubated at room temperature (around 25° C.) for 15 min. The reaction was initiated by adding 4 μL of 2.5x substrate mix, the plate was spun down as described before and incubated at 30° C. for 2 h. Afterwards, 10 μL of 2× MTaseGlo Detection solution was added, the plate was centrifuged as described above and incubated for 60 min at room temperature. Luminescence was measured using a PerkinElmer EnVision 2102 Multilabel Reader. Calculation of inhibition and data fitting was carried out as for entries 1-154. described above.
For the results of the methyltransferase inhibition assay shown as “Inhibition” in Table 1, “I” represents an IC50 less than 0.1 μM, “II” represents an IC50 equal or higher than 0.1 μM and less than 1 μM, “III” represents an IC50 equal or higher than 1 µM and less than 10 µM and “IV” represents an IC50 equal or higher than 10 µM

[3] = target: T1, KMT9; assay: KMT9 thermal shift assay (SyproOrange); conditions: 500 µM compound, 2 μM KMT9
Description: The assay was carried out in 96-well Hard-Shell PCR plates (Bio-Rad Laboratories Inc.). Assay buffer consisted of 50 mM BTP, 1 mM MgCl2 and 1 mM DTT at a pH of 8.5 (adjusted using 1 M HCl and 1 M NaOH). 20X inhibitor stock (in DMSO), 2X enzyme stock and 4X SyproOrange (SO) stock (both in assay buffer) were prepared. 1 μL of 20X compound, 4 μL of assay buffer, 10 μL of 2X KMT9 and 5 μL of 4X SO were pipetted. For the no-compound control, 20X inhibitor stock was replaced by DMSO. The final volume was 20 μL. The plate was spun down at 700 rpm for 1 min using a Hettich UNIVERSAL 320 centrifuge and incubated at 25° C., shaking at 600 rpm. After incubation, the plate was spun down for 1 min at 700 rpm and measurement was conducted using a CFX96 Touch Real-Time PCR Detection System (Bio-Rad Laboratories Inc.). The plate was equilibrated at 20° C. for 4 min and then heated stepwise at a rate of 1° C. per 15 s until 95° C. After every step, fluorescence was measured in FRET mode. Calculation of melting points was conducted by a Boltzman sigmoidal model using GraphPad Prism 7.0.
For the results of the thermal shift assay shown as “Thermal shift” in Table 1, “++++” represents a ΔTm of greater 20 K, “+++” represents a ΔTm of greater than 15 K and less than or equal to 20 K (15 K<ΔTm≤20 K); “++” represents a ΔTm of greater than 10 K and less than or equal to 15 K (10 K<ΔTm ≤ 15 K); “+” represents a ΔTm of equal to or less than 10 K (ΔTm≤10 K).

[4] = target: T1, KMT9; assay: Microscale thermophoresis (MST) KMT9 binding; conditions: read-out: MST (Kd); His-tag labelled KMT9 20 nM
Description: To determine the binding affinity of the compounds according to the present invention and KMT9, microscale thermophoresis (MST) analysis was performed with a NanoTemper Monolith NT.115 instrument (NanoTemper Technologies GmbH). KMT9 was labelled with a RED-Tris-NTA labelling kit (NanoTemper Technologies GmbH) based on the manufacturer's instructions. Buffer including 25 mM HEPES (pH 7.5), 100 mM NaCl, 1 mM DTT and 0.05% Tween was used for the reaction buffer. Varying concentrations of the tested compounds of formula (I) as indicated in Table 1 were titrated against His-tag labelled KMT9 proteins (20 nM). Samples were loaded into standard Capillaries (NanoTemper Technologies GmbH) and MST measurements were performed using 40% MST power and 100% LED power. For each set of binding experiments, MST measurement was carried out with Binding Affinity module in MO.Control program under Nano-RED Excitation. Datasets were processed with the MO.Affinity Analysis software (NanoTemper Technologies GmbH).
For the results of the microscale thermophoresis (MST) assay shown as “MST” in Table 1, “A” represents a Kd of equal to or less than 10 nM (Kd≤10 nM); “B” represents a Kd of greater than 10 nM and equal to or less than 100 nM (10 nM<Kd<100 nM); “C” represents a Kd of greater than 100 nM and equal to or less than 1000 nM (100 nM<Kd ≤ 1000 nM); “D” represents a Kd of greater than 1000 nM (1000 nM<Kd).

SMILES: Nc1nc(Cl)nc2c1ccn2[C@@H]1C[C@H](c2cccc(-c3cnsc3)c2)[C@@H](O)[C@H]1O
- in vivo (HT-1376 Cells), anti-proliferation effect [1]: ** (an anti-proliferation effect at greater than 10 UM and less than or equal to 30 μM)
- pIC50 [2]: 5.00 to 6.00
- Thermal shift (ΔTm) [3]: ++ (a ΔTm of greater than 10 K and less than or equal to 15 K (10 K<ΔTm ≤ 15 K))
- pKd [4]: 6.00 to 7.00

Reference: patent publication US20250188110A1, “SPECIFIC SMALL MOLECULE INHIBITORS THAT BLOCK KMT9 METHYLTRANSFERASE ACTIVITY AND FUNCTION” (ALBERT-LUDWIGS-UNIVERSITÄT FREIBURG, priority 2021, published 2025)
